# Source: patent US5814600A, “Method and composition for treatment of insulin requiring mammals” (Amylin Pharmaceuticals Inc., priority 1994, dated 1998)
# Not every detail of the peptide structures is certain; ends, links or a residue may be inferred.
# System: patients with juvenile-onset (Type 1) diabetes
# Assay: 14-day double-blind, placebo controlled clinical study: post-meal glucose
# Type: in vivo, human
# Details: for Post-meal glucose: Mean of changes in AUC: 14 days, AUC 0-3 h after test meal relative to premeal glucose
compound,measurement,setting,value
"CC[C@H](C)[C@H](NC(=O)[C@@H]1CCCN1C(=O)CNC(=O)[C@H](Cc1ccccc1)NC(=O)[C@H](CC(N)=O)NC(=O)[C@H](CC(N)=O)NC(=O)[C@H](CO)NC(=O)[C@H](CO)NC(=O)[C@H](Cc1c[nH]cn1)NC(=O)[C@@H](NC(=O)[C@H](CC(C)C)NC(=O)[C@H](Cc1ccccc1)NC(=O)[C@H](CC(N)=O)NC(=O)[C@H](C)NC(=O)[C@H](CC(C)C)NC(=O)[C@H](CCCNC(=N)N)NC(=O)[C@H](CCC(N)=O)NC(=O)[C@@H](NC(=O)[C@H](C)NC(=O)[C@@H]1CSSC[C@H](NC(=O)[C@@H](N)CCCCN)C(=O)N[C@@H](CC(N)=O)C(=O)N[C@@H]([C@@H](C)O)C(=O)N[C@@H](C)C(=O)N[C@@H]([C@@H](C)O)C(=O)N1)[C@@H](C)O)C(C)C)C(=O)N[C@@H](CC(C)C)C(=O)N1CCC[C@H]1C(=O)N1CCC[C@H]1C(=O)N[C@H](C(=O)N[C@@H](CC(N)=O)C(=O)N[C@H](C(=O)NCC(=O)N[C@@H](CO)C(=O)N[C@@H](CC(N)=O)C(=O)N[C@H](C(=O)N[C@@H](Cc1ccc(O)cc1)C(N)=O)[C@@H](C)O)C(C)C)[C@@H](C)O [tripro-amylin, ^25,28,29 Pro-human-amylin]",Post-meal glucose: Mean of changes in AUC,30 micrograms 3 times daily,"-6,645 mg/dl - min."
same,Post-meal glucose: Mean of changes in AUC,100 micrograms 3 times daily,"-6,412 mg/dl - min."
same,Post-meal glucose: Mean of changes in AUC,300 micrograms 3 times daily,"-7,316 mg/dl - min."
same,glucose smoothing effect (area under the glucose curve),"after 14 days, 30, 100 and 300 micrograms/dose three times daily, with usual insulin therapy",statistically significant (p=0.02) glucose smoothing effect
same,glucose smoothing effect,at 7 days,also observed at 7 days
